# Test results published in US20060205636A1, “Oxytocin as cardiomyogenesis inducer and uses thereof” (priority 2002, published 2006).
# Some results were stated once for a whole list of compounds, not compound by compound.
# Columns and labels:
# P19 cells = experiment: Rhodamine123 retention in P19 cultures; type: cell-based, mouse; details: day 10 of differentiation, p<0.001
# ANP mRNA = experiment: RT-PCR analysis of ANP gene transcript in P19 cultures; type: cell-based, mouse; details: induced P19 cells
# Procedure: Total cellular RNA was extracted with TRIzol® Reagent (Invitrogen Life Technologies, Burlington, Ontario, Canada), and poly(A)^+mRNA was affinity purified from 200 μg of total RNA onto Oligotex® mRNA columns (Qiagen, Mississauga, Ontario, Canada), as per the manufacturers' instructions. […] Invitrogen). First-strand cDNA (5 μl) was then used for PCR amplification with OTR, ANP or GAPDH exon-specific oligonucleotide primers in a Robocycler Gradient 40 thermocycler (Stratagene, La Jolla, Calif.). Sequences of mouse OTR and ANP genes have been described (26, 34). Conditions for RT-PCR analysis of mouse OTR were adapted from Wagner et al. (6, 7). For all PCR studies the number of cycles used was within the linear range of amplification. The OTR sense and antisense primers were respectively the 22-bp [NT] ID NO:9) and the 23-bp [NT] ID NO:10). […] The ANP antisense and sense primers were respectively the 24-bp [NT] ID NO:11) and the 20-bp [NT] ID NO:12). […] The amplification of GAPDH mRNA, a constitutively and ubiquitously expressed gene, served as an internal standard for RT-PCR analysis. The 23-bp antisense primer [NT] ID NO:13) and the 23-bp sense primer [NT] ID NO:14) were used.
substance,measurement,setting,value
oxytocin [OT],increase of cellular retention of rhodamine123 compared to non-induced aggregates,P19 cells,2-3 fold
same,ANP transcript level relative to adult mouse atrium,ANP mRNA,5-10%
